For the experiment, the system named is U2OS cells. The experiment in a line: Cell viability (ATP) of unmodified U2OS cells, parallel to reporter assay. Format: cell-based. Particulars: Homo sapiens. How it is done:
To separate the antagonist activity of test compounds from the cytotoxic effect on U2OS cells (cell line derived from osteosarcoma), an experiment for determination of cell viability was performed in parallel with the reporter assay. Original, genetically unmodified U2OS cells were grown under the same conditions as the reporter cells. These cells were further treated and incubated with the compounds in a completely identical manner and for the same time as cells in the reporter assay. At the end of the experiment, the amount of ATP was determined using BriteLite luciferase homogeneous assay as a measure of cell viability. The data were then processed together with data from the reporter assays.
For orientation: A reporter such as luciferase makes a cellular process visible.

On to `CNC(=O)c1ccc(N2C(=S)N(c3ccc(C#N)c(C(F)(F)F)c3)C(=O)C2(C)C)cc1F` [Enzalutamide], for which 89.4 µM corresponded to half-maximal inhibition (IC50).

What is called IC50 is the midpoint of a concentration-inhibition curve. A low value points to higher potency.

The values are drawn from patent US10759826B2, “15β-substituted estrone derivatives as selective inhibitors of 17β-hydroxysteroid-dehydrogenases, method of preparation and use thereof” (USTAV ORGANICKE CHEMIE A BIOCHEMIE AV CR, V.V.I., priority 2016, dated 2020).
